The other results are listed elsewhere or left out.
Columns and labels:
Assay in all cases: log2 fold change, soluble protein after heating vs DMSO (PISA); higher = thermal stabilisation; K562 cells, 10 uM, 30 min; active = over 0.2 and 3.5 SD of the protein, either way, in both replicates (recomputed)
[1] = compound: COC1=CC=C(C=C1)CN2C=CC3=C2C=C(C=C3)C(=O)NO
How it was run: (§1)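 Aliquots of K562 cells (2×10^6 cells/mL) treated with 10 μM compound for 30 min were heated for 3 min over 48°C-58°C. After pooling and extraction in PBS with 0.5% NP-40 at 4°C, soluble protein from a 21,000xg, 90 min spin was quantified by TMTpro 16plex LC-MS/MS with channel sums equalised. Thermal stability is expressed against control samples, from duplicates, as a log2 fold change.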

Amino acid sequences for entries named in this document (tags omitted). A change or cut given only in a name is not applied to a line headed by its entry.
UniProt O75716, whole entry, looked up: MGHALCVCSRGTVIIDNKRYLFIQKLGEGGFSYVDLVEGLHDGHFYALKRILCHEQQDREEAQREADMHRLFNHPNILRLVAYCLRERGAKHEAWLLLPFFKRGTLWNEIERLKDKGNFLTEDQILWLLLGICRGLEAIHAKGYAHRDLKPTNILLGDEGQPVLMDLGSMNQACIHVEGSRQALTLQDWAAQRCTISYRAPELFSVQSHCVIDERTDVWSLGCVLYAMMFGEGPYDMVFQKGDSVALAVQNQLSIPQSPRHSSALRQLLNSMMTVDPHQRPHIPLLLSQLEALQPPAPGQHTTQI
UniProt Q658P3: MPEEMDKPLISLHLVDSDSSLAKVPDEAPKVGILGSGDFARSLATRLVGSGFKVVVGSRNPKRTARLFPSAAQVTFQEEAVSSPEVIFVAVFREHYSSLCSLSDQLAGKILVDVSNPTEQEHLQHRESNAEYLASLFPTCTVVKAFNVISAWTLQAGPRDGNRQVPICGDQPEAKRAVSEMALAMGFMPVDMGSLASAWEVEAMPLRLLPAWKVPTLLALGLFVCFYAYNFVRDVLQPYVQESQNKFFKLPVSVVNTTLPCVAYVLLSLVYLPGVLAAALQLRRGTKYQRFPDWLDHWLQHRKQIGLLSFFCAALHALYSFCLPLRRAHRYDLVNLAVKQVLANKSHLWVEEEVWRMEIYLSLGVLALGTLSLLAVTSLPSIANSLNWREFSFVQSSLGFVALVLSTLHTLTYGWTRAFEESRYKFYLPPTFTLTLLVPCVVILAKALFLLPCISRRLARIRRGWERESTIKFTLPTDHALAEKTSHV
UniProt Q8NEF9: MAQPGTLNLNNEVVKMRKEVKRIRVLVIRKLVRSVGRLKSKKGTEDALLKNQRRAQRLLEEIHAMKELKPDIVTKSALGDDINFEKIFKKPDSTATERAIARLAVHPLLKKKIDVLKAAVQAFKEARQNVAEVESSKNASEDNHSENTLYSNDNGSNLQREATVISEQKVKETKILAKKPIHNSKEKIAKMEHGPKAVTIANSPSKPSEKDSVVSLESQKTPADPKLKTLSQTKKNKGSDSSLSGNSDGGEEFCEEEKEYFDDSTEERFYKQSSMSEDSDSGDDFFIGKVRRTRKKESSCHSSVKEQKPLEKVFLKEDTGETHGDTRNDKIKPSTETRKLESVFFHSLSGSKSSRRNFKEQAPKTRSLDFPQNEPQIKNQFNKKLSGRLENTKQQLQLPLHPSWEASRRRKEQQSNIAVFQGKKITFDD
UniProt O43805: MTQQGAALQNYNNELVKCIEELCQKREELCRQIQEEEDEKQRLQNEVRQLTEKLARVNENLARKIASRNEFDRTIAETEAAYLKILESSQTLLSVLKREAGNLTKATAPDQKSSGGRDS
UniProt Q01082, whole entry, looked up: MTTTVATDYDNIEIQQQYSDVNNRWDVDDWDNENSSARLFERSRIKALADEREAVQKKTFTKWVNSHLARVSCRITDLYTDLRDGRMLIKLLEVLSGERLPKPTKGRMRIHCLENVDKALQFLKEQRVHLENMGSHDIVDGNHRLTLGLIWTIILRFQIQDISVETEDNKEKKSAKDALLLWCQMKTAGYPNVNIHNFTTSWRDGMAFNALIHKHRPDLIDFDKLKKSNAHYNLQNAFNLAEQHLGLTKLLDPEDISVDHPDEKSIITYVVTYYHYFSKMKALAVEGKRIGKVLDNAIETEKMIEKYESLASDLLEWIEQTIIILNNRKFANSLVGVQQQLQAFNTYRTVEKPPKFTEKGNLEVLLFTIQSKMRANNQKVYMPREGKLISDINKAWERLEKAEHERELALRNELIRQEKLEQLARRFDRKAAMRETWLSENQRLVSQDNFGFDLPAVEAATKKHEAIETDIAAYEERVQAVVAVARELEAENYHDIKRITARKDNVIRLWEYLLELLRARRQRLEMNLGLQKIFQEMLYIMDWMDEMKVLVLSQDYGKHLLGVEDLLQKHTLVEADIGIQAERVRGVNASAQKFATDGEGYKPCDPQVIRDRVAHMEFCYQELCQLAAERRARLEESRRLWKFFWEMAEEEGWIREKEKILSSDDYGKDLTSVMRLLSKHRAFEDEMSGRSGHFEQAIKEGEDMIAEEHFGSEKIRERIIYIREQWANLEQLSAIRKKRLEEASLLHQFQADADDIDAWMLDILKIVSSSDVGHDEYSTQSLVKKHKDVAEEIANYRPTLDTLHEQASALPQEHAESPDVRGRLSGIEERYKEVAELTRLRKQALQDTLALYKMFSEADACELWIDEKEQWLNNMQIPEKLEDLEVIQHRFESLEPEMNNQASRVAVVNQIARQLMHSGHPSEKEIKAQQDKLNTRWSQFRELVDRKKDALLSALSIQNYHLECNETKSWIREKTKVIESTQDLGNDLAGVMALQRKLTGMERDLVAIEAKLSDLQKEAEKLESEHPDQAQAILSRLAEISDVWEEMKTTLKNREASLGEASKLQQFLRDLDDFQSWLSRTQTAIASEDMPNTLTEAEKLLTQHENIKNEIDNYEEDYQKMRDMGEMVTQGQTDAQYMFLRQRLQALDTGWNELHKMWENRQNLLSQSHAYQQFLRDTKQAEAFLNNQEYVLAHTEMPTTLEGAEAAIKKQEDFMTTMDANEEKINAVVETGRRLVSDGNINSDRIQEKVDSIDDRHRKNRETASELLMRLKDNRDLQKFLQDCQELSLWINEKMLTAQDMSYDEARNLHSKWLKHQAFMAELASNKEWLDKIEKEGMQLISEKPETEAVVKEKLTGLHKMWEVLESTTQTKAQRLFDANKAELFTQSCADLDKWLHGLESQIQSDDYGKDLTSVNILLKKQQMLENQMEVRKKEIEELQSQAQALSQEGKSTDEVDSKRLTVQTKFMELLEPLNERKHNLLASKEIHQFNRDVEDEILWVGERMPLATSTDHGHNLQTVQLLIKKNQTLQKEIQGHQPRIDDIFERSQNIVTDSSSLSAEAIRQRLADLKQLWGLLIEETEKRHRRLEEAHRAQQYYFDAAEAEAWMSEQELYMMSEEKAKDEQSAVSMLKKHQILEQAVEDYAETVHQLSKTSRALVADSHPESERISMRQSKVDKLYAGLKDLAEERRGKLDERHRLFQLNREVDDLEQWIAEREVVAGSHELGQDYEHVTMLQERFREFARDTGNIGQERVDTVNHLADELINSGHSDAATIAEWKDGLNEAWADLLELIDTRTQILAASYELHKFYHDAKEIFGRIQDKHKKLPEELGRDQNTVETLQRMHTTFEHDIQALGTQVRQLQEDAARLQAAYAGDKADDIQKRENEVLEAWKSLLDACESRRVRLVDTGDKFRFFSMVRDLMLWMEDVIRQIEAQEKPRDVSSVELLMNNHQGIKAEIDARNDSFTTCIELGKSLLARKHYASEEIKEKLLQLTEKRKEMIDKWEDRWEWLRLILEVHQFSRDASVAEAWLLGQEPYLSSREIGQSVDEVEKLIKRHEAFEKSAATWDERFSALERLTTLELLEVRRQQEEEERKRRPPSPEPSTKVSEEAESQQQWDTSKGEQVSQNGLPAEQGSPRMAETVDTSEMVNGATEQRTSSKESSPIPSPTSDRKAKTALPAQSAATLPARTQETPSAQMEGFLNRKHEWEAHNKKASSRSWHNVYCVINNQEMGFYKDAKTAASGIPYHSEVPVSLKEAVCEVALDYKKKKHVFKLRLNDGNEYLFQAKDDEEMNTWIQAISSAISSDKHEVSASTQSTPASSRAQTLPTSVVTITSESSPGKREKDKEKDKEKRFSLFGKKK
UniProt P10124: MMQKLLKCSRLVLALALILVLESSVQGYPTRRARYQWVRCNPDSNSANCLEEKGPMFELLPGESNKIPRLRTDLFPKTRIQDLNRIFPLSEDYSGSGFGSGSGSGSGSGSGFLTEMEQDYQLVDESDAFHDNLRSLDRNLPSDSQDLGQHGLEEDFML
UniProt O76094: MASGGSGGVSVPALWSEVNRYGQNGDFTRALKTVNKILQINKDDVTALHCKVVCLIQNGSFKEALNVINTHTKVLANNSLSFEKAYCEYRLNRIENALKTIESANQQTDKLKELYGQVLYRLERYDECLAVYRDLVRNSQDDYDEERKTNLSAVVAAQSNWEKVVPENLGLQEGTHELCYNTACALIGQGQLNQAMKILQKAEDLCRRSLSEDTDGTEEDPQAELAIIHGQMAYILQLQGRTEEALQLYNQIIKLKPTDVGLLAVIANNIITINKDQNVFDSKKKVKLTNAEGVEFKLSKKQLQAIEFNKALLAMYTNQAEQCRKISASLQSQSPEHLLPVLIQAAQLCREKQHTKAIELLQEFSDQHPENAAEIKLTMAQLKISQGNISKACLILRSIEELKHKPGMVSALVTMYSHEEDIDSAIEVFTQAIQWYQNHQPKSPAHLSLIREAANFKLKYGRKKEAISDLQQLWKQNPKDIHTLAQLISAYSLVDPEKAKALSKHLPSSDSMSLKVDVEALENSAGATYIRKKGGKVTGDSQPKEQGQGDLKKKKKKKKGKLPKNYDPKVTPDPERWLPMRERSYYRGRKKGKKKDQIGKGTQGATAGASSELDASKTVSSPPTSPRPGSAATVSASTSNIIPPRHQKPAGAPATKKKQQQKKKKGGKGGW
UniProt Q16385, whole entry, looked up: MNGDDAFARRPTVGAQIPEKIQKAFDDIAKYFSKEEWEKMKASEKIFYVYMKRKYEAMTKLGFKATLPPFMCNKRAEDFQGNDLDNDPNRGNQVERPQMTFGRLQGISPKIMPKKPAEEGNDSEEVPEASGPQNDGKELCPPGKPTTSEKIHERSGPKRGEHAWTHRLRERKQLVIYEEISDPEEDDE
UniProt O95772: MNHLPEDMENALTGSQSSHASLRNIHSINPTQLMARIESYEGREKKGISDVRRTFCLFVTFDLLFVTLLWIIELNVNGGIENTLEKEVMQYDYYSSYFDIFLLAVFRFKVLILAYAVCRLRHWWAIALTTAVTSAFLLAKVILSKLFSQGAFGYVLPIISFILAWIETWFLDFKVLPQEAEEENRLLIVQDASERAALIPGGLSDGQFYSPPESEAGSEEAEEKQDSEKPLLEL
UniProt P05455: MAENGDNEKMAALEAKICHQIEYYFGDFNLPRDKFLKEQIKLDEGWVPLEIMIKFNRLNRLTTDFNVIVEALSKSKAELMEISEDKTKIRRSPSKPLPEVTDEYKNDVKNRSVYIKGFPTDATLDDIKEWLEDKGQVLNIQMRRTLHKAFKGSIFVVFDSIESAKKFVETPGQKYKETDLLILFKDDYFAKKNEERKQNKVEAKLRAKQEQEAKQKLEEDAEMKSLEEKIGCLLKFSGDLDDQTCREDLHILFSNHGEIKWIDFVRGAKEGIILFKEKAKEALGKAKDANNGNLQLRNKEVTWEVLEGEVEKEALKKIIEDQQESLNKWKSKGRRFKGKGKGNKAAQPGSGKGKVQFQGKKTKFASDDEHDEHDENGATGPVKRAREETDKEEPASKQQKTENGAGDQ
UniProt Q9NYA1, whole entry, looked up: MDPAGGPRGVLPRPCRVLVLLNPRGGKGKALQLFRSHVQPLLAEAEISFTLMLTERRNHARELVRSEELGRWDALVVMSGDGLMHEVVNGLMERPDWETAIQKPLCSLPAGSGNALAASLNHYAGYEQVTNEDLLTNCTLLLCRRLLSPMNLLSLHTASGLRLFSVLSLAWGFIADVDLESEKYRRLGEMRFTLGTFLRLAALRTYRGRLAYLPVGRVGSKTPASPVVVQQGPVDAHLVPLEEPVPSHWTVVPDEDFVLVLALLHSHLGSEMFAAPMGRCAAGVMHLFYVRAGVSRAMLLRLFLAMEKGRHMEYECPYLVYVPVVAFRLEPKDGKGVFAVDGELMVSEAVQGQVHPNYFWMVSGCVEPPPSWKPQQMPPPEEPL
UniProt Q01130: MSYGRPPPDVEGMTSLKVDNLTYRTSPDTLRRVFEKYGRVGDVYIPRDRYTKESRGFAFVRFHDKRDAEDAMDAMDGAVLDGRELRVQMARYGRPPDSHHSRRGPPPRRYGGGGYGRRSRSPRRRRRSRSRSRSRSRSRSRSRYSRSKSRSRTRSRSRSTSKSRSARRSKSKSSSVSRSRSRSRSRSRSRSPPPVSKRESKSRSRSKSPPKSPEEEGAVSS
UniProt Q9NQZ5: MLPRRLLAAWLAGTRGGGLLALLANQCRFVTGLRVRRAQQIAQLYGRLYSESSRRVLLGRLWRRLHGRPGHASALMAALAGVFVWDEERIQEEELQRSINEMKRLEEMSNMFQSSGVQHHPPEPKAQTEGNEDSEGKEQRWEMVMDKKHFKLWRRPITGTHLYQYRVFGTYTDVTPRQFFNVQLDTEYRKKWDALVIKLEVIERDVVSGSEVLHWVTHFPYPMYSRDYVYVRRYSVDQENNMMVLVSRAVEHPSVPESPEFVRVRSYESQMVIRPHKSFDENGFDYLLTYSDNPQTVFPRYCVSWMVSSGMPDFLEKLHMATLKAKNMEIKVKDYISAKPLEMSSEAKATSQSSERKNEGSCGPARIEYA
UniProt Q56A73: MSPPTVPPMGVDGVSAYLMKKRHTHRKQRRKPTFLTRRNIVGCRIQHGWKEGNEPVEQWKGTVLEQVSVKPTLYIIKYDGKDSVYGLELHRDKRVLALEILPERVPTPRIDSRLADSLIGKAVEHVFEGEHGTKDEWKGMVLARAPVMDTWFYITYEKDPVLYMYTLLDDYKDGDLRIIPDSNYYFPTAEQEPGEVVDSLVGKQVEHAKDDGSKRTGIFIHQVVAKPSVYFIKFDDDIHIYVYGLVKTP

filanesib = compound: CON(C)C(=O)N1N=C(c2cc(F)ccc2F)S[C@@]1(CCCN)c1ccccc1 [filanesib]
How it was run: as §1

zotarolimus = compound: CO[C@H]1C[C@@H]2CC[C@@H](C)[C@@](O)(O2)C(=O)C(=O)N2CCCC[C@H]2C(=O)O[C@H]([C@H](C)C[C@@H]2CC[C@H](n3cnnn3)[C@H](OC)C2)CC(=O)[C@H](C)/C=C(\C)[C@@H](O)[C@@H](OC)C(=O)[C@H](C)C[C@H](C)/C=C/C=C/C=C/1C [zotarolimus]
How it was run: as §1

idasanutlin = compound: COc1cc(C(=O)O)ccc1NC(=O)[C@@H]1N[C@@H](CC(C)(C)C)[C@](C#N)(c2ccc(Cl)cc2F)[C@H]1c1cccc(Cl)c1F [idasanutlin]
How it was run: as §1

alisertib = compound: COc1cc(Nc2ncc3c(n2)-c2ccc(Cl)cc2C(c2c(F)cccc2OC)=NC3)ccc1C(=O)O [alisertib]
How it was run: as §1

[2] = compound: COc1cc2nc(-c3cc(F)ccc3O)nc(N[C@@H]3CNC[C@H]3C(C)(C)O)c2cc1OC
How it was run: as §1

gefitinib = compound: COc1cc2ncnc(Nc3ccc(F)c(Cl)c3)c2cc1OCCCN1CCOCC1 [gefitinib]
How it was run: as §1

[3] = compound: COc1cccc2cc(-c3nc([C@H]4CC[C@H](C(=O)O)CC4)n4ncnc(N)c34)[nH]c12
How it was run: as §1

lapatinib = compound: CS(=O)(=O)CCNCc1ccc(-c2ccc3ncnc(Nc4ccc(OCc5cccc(F)c5)c(Cl)c4)c3c2)o1 [lapatinib]
How it was run: as §1

pictilisib = compound: CS(=O)(=O)N1CCN(Cc2cc3nc(-c4cccc5[nH]ncc45)nc(N4CCOCC4)c3s2)CC1 [pictilisib]
How it was run: as §1

Measured: log2 fold change

STK16 (UniProt O75716)
inactive: [1] -0.033

STEAP3 isoform 2 (UniProt Q658P3)
active: pictilisib 0.227
inactive: [1] -0.028 | filanesib -0.014 | zotarolimus -0.06 | idasanutlin -0.11 | alisertib -0.028 | [2] 0.035 | gefitinib -0.01 | [3] 0.025 | lapatinib 0.013

SPCS1, A0A5F9YFS9
inactive: [1] 0.078 | filanesib 0.024 | zotarolimus 0.075 | idasanutlin -0.17 | alisertib -0.023 | [2] 0.059 | gefitinib 0.009 | [3] 0.039 | lapatinib 0.038 | pictilisib 0.046

SRFBP1 (UniProt Q8NEF9)
inactive: [1] 0.013 | filanesib 0.193 | zotarolimus -0.021 | idasanutlin -0.018 | alisertib -0.027 | [2] 0.306 | gefitinib 0.06 | [3] -0.072 | lapatinib 0.13 | pictilisib -0.065

SRGAP2 (UniProt O75044)
inactive: [1] -0.017 | filanesib 0.034 | zotarolimus 0.009 | idasanutlin 0 | alisertib -0.048 | [2] 0.051 | gefitinib 0.026 | [3] 0.011 | lapatinib -0.023 | pictilisib 0.064

Two entries drawn at random from the list so far, as already listed:
SPCS1, A0A5F9YFS9
inactive: [1] 0.078 | filanesib 0.024 | zotarolimus 0.075 | idasanutlin -0.17 | alisertib -0.023 | [2] 0.059 | gefitinib 0.009 | [3] 0.039 | lapatinib 0.038 | pictilisib 0.046

SRFBP1 (UniProt Q8NEF9)
inactive: [1] 0.013 | filanesib 0.193 | zotarolimus -0.021 | idasanutlin -0.018 | alisertib -0.027 | [2] 0.306 | gefitinib 0.06 | [3] -0.072 | lapatinib 0.13 | pictilisib -0.065

Later entries

SSNA1 (UniProt O43805)
inactive: [1] 0.071 | filanesib -0.035 | zotarolimus 0.031 | idasanutlin 0.04 | alisertib -0.044 | [2] -0.02 | gefitinib -0.02 | [3] 0.023 | lapatinib 0.007 | pictilisib 0.125

SRPK1 (UniProt Q96SB4)
inactive: [1] -0.092 | filanesib 0.259 | zotarolimus 0.021 | idasanutlin 0.158 | alisertib 0.005 | [2] -0.084 | gefitinib -0.052 | [3] -0.149 | lapatinib 0.137 | pictilisib -0.182

SPTBN1 (UniProt Q01082)
inactive: [1] -0.037 | filanesib 0.102 | zotarolimus 0.045 | idasanutlin 0.053 | alisertib -0.073 | [2] 0.02 | gefitinib 0.084 | [3] -0.076 | lapatinib 0.031 | pictilisib 0.007

SRGN (UniProt P10124)
inactive: [1] 0.04 | filanesib 0.267 | zotarolimus 0.099 | idasanutlin 0.069 | alisertib -0.027 | [2] 0.028 | gefitinib 0.208 | [3] 0.014 | lapatinib 0.121 | pictilisib -0.029

SQSTM1 (UniProt Q13501)
inactive: [1] 0.047 | filanesib 0.011 | zotarolimus -0.167 | idasanutlin 0.072 | alisertib -0.016 | [2] -0.136 | gefitinib -0.022 | [3] 0.058 | lapatinib -0.012 | pictilisib -0.112

SPTLC2 (UniProt O15270)
inactive: [1] -0.008 | filanesib -0.119 | zotarolimus 0.019 | idasanutlin -0.04 | alisertib -0.019 | [2] -0.035 | gefitinib 0.011 | [3] 0.031 | lapatinib 0.022 | pictilisib 0.102

SRP72 (UniProt O76094)
inactive: [1] 0.003 | filanesib 0.075 | zotarolimus 0.048 | idasanutlin -0.045 | alisertib -0.131 | [2] 0.023 | gefitinib 0.007 | [3] -0.235 | lapatinib -0.043 | pictilisib 0

SSX2 (UniProt Q16385)
inactive: [1] 0.083 | filanesib 0.009 | zotarolimus -0.014 | idasanutlin -0.021 | alisertib 0.035 | [2] 0.025 | gefitinib 0.032 | [3] 0.004 | lapatinib -0.011 | pictilisib 0.064

SRRM1 (UniProt Q8IYB3)
inactive: [1] -0.049 | filanesib 0.188 | zotarolimus 0.001 | idasanutlin 0.217 | alisertib 0.028 | [2] -0.213 | gefitinib 0 | [3] 0 | lapatinib 0.055 | pictilisib -0.156

STARD3NL (UniProt O95772)
inactive: [1] -0.005 | filanesib -0.082 | zotarolimus -0.054 | idasanutlin -0.19 | alisertib -0.056 | [2] 0.095 | gefitinib 0.048 | [3] 0.075 | lapatinib -0.048 | pictilisib 0.024

SRP19 (UniProt P09132)
inactive: [1] 0.154 | filanesib 0.009 | zotarolimus 0 | idasanutlin 0.033 | alisertib -0.01 | [2] 0.028 | gefitinib 0.083 | [3] -0.062 | lapatinib 0.028 | pictilisib 0

SRI (UniProt P30626)
inactive: [1] -0.015 | filanesib 0.053 | zotarolimus 0.133 | idasanutlin -0.031 | alisertib -0.035 | [2] -0.109 | gefitinib 0.01 | [3] 0.023 | lapatinib 0.008 | pictilisib -0.04

SSB (UniProt P05455)
inactive: [1] -0.036 | filanesib 0.049 | zotarolimus -0.063 | idasanutlin 0 | alisertib -0.046 | [2] -0.132 | gefitinib -0.016 | [3] -0.101 | lapatinib -0.031 | pictilisib -0.042

STAM2 (UniProt O75886)
inactive: [1] -0.006 | filanesib 0.059 | zotarolimus -0.018 | idasanutlin -0.06 | alisertib 0.015 | [2] 0.001 | gefitinib 0.002 | [3] -0.066 | lapatinib -0.018 | pictilisib 0.055

SPCS2 (UniProt Q15005)
active: [1] 0.5
inactive: filanesib -0.061 | zotarolimus 0.018 | idasanutlin -0.039 | alisertib 0.008 | [2] 0.092 | gefitinib 0.03 | [3] -0.021 | lapatinib 0.002 | pictilisib -0.006

SPHK1 isoform 2 (UniProt Q9NYA1)
inactive: [1] -0.11 | filanesib -0.046 | zotarolimus -0.002 | idasanutlin -0.146 | alisertib -0.039 | [2] 0.117 | gefitinib -0.021 | [3] 0.038 | lapatinib 0.104 | pictilisib 0.05

SRSF2 (UniProt Q01130)
inactive: [1] -0.071 | filanesib 0.118 | zotarolimus 0 | idasanutlin 0.123 | alisertib -0.076 | [2] -0.003 | gefitinib 0.038 | [3] 0.024 | lapatinib 0.039 | pictilisib 0.027

STARD7 (UniProt Q9NQZ5)
inactive: [1] 0.006 | filanesib -0.094 | zotarolimus 0.006 | idasanutlin -0.063 | alisertib 0.027 | [2] -0.171 | gefitinib -0.035 | [3] 0.031 | lapatinib 0.003 | pictilisib 0.01

SPATA5L1 (UniProt Q9BVQ7)
inactive: [1] 0.016 | filanesib 0.043 | zotarolimus -0.034 | idasanutlin 0.039 | alisertib -0.086 | [2] 0.067 | gefitinib 0.014 | [3] 0.008 | lapatinib -0.027 | pictilisib 0.001

SPIN4 (UniProt Q56A73)
active: [1] -1.43

ST6GALNAC1 (UniProt Q9NSC7)
inactive: [1] -0.021 | filanesib -0.02 | zotarolimus 0.036 | idasanutlin 0.067 | alisertib -0.068 | [2] 0.134 | gefitinib 0.137 | [3] 0.003 | lapatinib -0.246

STAT3 (UniProt P40763)
inactive: [1] 0.063 | filanesib -0.031 | zotarolimus 0.086 | idasanutlin -0.003 | alisertib 0.013 | [2] 0.023 | gefitinib 0 | [3] -0.039 | lapatinib 0.004 | pictilisib 0.051

SPTBN2 (UniProt O15020)
inactive: [1] 0.013 | filanesib 0.105 | zotarolimus -0.098 | idasanutlin 0.039 | alisertib 0.076 | [2] 0.007 | gefitinib 0.015 | [3] -0.163 | lapatinib 0.016 | pictilisib 0

SPN (UniProt P16150)
inactive: [1] -0.013 | filanesib 0.079 | zotarolimus -0.072 | idasanutlin 0.034 | alisertib -0.068 | [2] 0.042 | gefitinib -0.003 | [3] 0.035 | lapatinib -0.068 | pictilisib 0

Source: the supplement of paper PMC10849652
